## Primary screen of a compound library

Source: ChEMBL document CHEMBL3988442, “University of Dundee, Small-Polar-MMV Screening Library” (2021).

Each number is a percent effect as filed. The record does not define 0% and 100%; most values in the screen are far below 50% and negative numbers occur (in some assays of this library far below -100). Compounds were drawn at random from those tested, without regard to their results.

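Whole-parasite assay of Trypanosoma brucei over 72 hours; the read-out is not stated. Tested at 30 µM. Higher reads as stronger inhibition (inferred: compounds with an IC50 in retests scored well above the rest). Values scatter widely below zero; nearly all retest evidence comes from the higher of the two concentrations used. About 64,000 compounds were tested under these conditions; 1.5% (about 940) showed 50% or more at least once.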

compound: O=C(Nc1ccc2c(c1)C(=O)NC2=O)c1ccc(Cl)s1
percent effect: -14.53%

compound: CN1CC(C(=O)NCc2cccnc2OCC(F)(F)F)CC1=O (stereo unspecified)
percent effect: -17.78%

compound: CC(C)C(=O)N1CCC12CCCN(C(=O)c1ccnnc1)C2 (stereo unspecified)
percent effect: -18.17%

compound: O=S(=O)(NCC1(O)CCOc2ccccc21)c1ccccc1F (stereo unspecified)
percent effect: -3.611%

compound: O=C(NCCCn1cncn1)NCC(c1ccco1)N1CCCCC1 (stereo unspecified)
percent effect: -17.7%

compound: Cc1nc(C)n(C2CCCN(C(=O)c3ccc(F)cc3F)C2)n1 (stereo unspecified)
percent effect: 1.062%

compound: Cn1cnc(S(=O)(=O)NCCCN2CCCCCC2)c1Cl
percent effect: -20.77%

compound: Cc1cccc(-c2ccc(C(=O)NCCN(C)C3CC3)c(=O)[nH]2)c1
percent effect: -18.05%

compound: CC(NCc1ccncc1)c1cc2c(cc1Br)OCCO2 (stereo unspecified)
percent effect: -9.279%

compound: CCN(CC1CCOC1)C(=O)Nc1ccc(N2CCCCC2)nc1 (stereo unspecified)
percent effect: 9.585%

compound: CC(=O)N1CCCN(C(=O)NCc2ccc(-c3ccn[nH]3)cc2)CC1
percent effect: -17.21%

compound: CN1CCC(N(Cc2ccco2)S(=O)(=O)c2ccc(Br)cc2Cl)CC1
percent effect: 2.26%

compound: COc1ccc(CCn2ccnc2-c2cc3n(n2)CCCNC3)cc1
percent effect: -24.01%

compound: CC(C)(C)c1nnc(CN2CCCC(Cn3cncn3)C2)o1 (stereo unspecified)
percent effect: -18.57%

compound: COc1ccccc1OCCNc1snc(Cl)c1C#N
percent effect: 7.019%

compound: Cc1nccn1CCC1CCN(C(C)C)CC1
percent effect: -2.944%

compound: O=C(O)C(F)(F)F.[H][C@@]12CCCO[C@]1([H])[C@H](N(C)Cc1ccco1)CN(C(=O)c1ccnnc1)C2
percent effect: -20.82%

compound: O=C(O)C(F)(F)F.[H][C@@]12COC[C@]1(CNS(=O)(=O)CC)CN(CCc1ccccc1)C2
percent effect: -11.4%

compound: CC(NC(=O)Nc1cccnc1N1CCCC1)c1ccn(C)c1 (stereo unspecified)
percent effect: -27.47%

compound: Cc1nn(C)c(C)c1C1CCCN1Cc1nc(-c2ccco2)no1 (stereo unspecified)
percent effect: 20.74%

compound: CNS(=O)(=O)c1cccc(CNC(=O)CCc2ccsc2)c1
percent effect: -32.16%

compound: COc1cccc(CN(Cc2ccco2)Cc2[nH]cnc2C)c1.O=C(O)CC(O)(CC(=O)O)C(=O)O
percent effect: 3.567%

compound: COCCN1CCN(C(C)C(=O)Nc2ccnn2C(C)C)CC1 (stereo unspecified)
percent effect: -1.864%

compound: OC1CN(Cc2ccccc2)CCN(c2ccncc2)C1 (stereo unspecified)
percent effect: -14.51%

compound: COCC1CC2(CCN(C(=O)c3cccc(C)c3)CC2)CO1 (stereo unspecified)
percent effect: -0.02143%

compound: COc1c(C2CCCN2C(=O)c2ccc(C#N)c(C)n2)c(C)nn1C (stereo unspecified)
percent effect: 0.3708%

compound: O=C(N1CCCCC1)N1CCCC(c2ncncc2-c2ccncc2)C1 (stereo unspecified)
percent effect: 16.34%

compound: Cc1c(CN2CCCC2c2cncc(CN3CCCC3)n2)cnn1C (stereo unspecified)
percent effect: 5.915%

compound: CN(C(=O)CN1CCCc2cc(F)cc(F)c21)c1ccccc1
percent effect: -18.98%

compound: OCC1CCCN1c1cc(N2CCc3ccccc3C2)ncn1 (stereo unspecified)
percent effect: -62.4%

compound: [H][C@]12CCC(=O)N[C@@]1(C)CCCCN2Cc1ccc(F)c(OC)c1
percent effect: 8.071%

compound: OC1(CN2CCC(Cc3ccccc3)CC2)CCC1
percent effect: -55.67%

compound: CC(C)OCCS(=O)(=O)NC1CCN(C2CCCC2)C1 (stereo unspecified)
percent effect: -36.92%

compound: COCCn1ccc2cc(C(=O)N3CCN(S(C)(=O)=O)CC3)ccc21
percent effect: -20.28%

compound: CSCC(C)(O)CNc1cccc(F)c1C(C)=O (stereo unspecified)
percent effect: -27.46%

compound: COCC1c2c(cnn2C)CCN1Cc1ccc(F)cc1.O=C(O)C(F)(F)F.O=C(O)C(F)(F)F (stereo unspecified)
percent effect: -41.73%

compound: O=C(O)C(F)(F)F.O=C(O)C(F)(F)F.O=C(O)C(F)(F)F.[H][C@@]12CN(Cc3cccnc3OC)C[C@]1([H])OCCN2CCN(C)C
percent effect: -29.49%

compound: Cc1cc(N2CCCN(C(C(=O)O)c3cccc(C)c3F)CC2)ccn1 (stereo unspecified)
percent effect: -11.82%

compound: Cc1ccc(N2CCCC(NCc3sccc3C)C2)nn1 (stereo unspecified)
percent effect: 11.67%

compound: [H][C@]12CCC(=O)N(c3cccnc3)[C@@]1([H])CCN2C(=O)c1cccs1
percent effect: -28.86%

compound: CCOCCn1nc(C)cc1C(=O)N1CC[C@](C)(O)[C@H](C)C1
percent effect: -5.593%

compound: Cc1cc(C)n(CCN(C)Cc2c[nH]nc2-c2ccc3c(c2)OCO3)n1
percent effect: 16.82%

compound: O=C1CCc2cc(-c3csc(CCN4CCCC4=O)n3)ccc2N1
percent effect: 24.69%

compound: O=C(O)C(F)(F)F.O=C(c1cnccn1)N1CCc2ncnc(-c3cccnc3)c2CC1
percent effect: -13.12%

compound: O=C(CCC(=O)N1CCC(Oc2ncccc2Br)CC1)c1ccccc1
percent effect: 34.41%

compound: O=C(NCCc1nnc2n1CCCCC2)N1CCC2(CCOC2)C1 (stereo unspecified)
percent effect: 7.003%

compound: CCOCc1nc2c(c(NC(CC)c3ccnn3C)n1)CCNCC2 (stereo unspecified)
percent effect: 6.69%

compound: CN(Cc1ccc(Cl)s1)C(=O)c1ccccc1OCC(N)=O
percent effect: -13.51%

compound: Cn1cc(CNCC2Cn3nnc(-c4ccccc4)c3CO2)cn1 (stereo unspecified)
percent effect: 15.41%

compound: Cc1nc(N2CCN(C(=O)c3ccccc3)CC2)cc(-n2ccnc2)n1
percent effect: -35.81%

compound: CC(C)N1CCOC(Cc2nn3c(Cc4ccccc4)nnc3s2)C1 (stereo unspecified)
percent effect: 3.643%

compound: CS(=O)(=O)CCNC(=O)C1(c2cccc(Cl)c2)CCCCC1
percent effect: -22.67%

compound: Cc1cc(C)cc(OCn2ccc(C(=O)O)n2)c1
percent effect: -19.35%

For reference, 5 entries once more:

| compound | percent effect |
|---|---|
| `CC(=O)N1CCCN(C(=O)NCc2ccc(-c3ccn[nH]3)cc2)CC1` | -17.21% |
| `Cc1c(CN2CCCC2c2cncc(CN3CCCC3)n2)cnn1C` (stereo unspecified) | 5.915% |
| `[H][C@]12CCC(=O)N[C@@]1(C)CCCCN2Cc1ccc(F)c(OC)c1` | 8.071% |
| `Cc1cc(C)n(CCN(C)Cc2c[nH]nc2-c2ccc3c(c2)OCO3)n1` | 16.82% |
| `O=C(CCC(=O)N1CCC(Oc2ncccc2Br)CC1)c1ccccc1` | 34.41% |